This passage reports activity change, negative = viability loss results from PubChem BioAssay AID493240 (Broad Institute, 2011).

The campaign covered roughly 1,300 compounds. About 270 (21%) were called active. No rule for the calls is given here. Only a part is listed here, and it is no random draw. Entries with a potency or affinity are not part of this list.

The nature of this experiment: cytotoxicity in parental SK-MEL-5 melanoma cells – cell-based, CellTiter-Glo, cherry-picked, set 3, orthogonal assay for MITF inhibitor project, dose response (AID 493240). The conditions noted are these: SK-MEL-5 viability, ATP luminescence (CellTiter-Glo), 24 h; at 35 µM (top of the series). (In general: ATP-based viability assays read luminescence as a measure of living cells.)
Regarding `O=c1[nH]c(=S)[nH]c(O)c1N=Nc1ccc(S(=O)(=O)N2CCc3ccccc32)cc1`, the activity change, negative = viability loss is inactive: -7.59%.

`Cc1ccc(N2C(=O)NC(=O)/C(=C\C=C\c3ccco3)C2=O)cc1`: the activity change, negative = viability loss is inactive: -10.9%. For `Cc1cccc(N2C(=O)NC(=O)/C(=C\C=C\c3ccco3)C2=O)c1`, the activity change, negative = viability loss is inactive: -26.4%.

Consider `COc1cc2c(cc1/C=C/[N+](=O)[O-])OCO2`, for which the activity change, negative = viability loss was inactive: -28.2%. To `NCCc1ccc(OCc2ccccc2)c(OCc2ccccc2)c1` belongs inactive: -18.1%; to `Cc1cc(C(=O)Nc2ccc3c(c2)OCCO3)nn1C(C)(C)C`, inactive: -3.41%; to `O=C1NC(=O)N(Cc2ccccc2)C(=O)/C1=C\C=C\c1ccco1`, inactive: 9.96%. For `Cc1cc(C(=O)Nc2ccccc2)nn1C(C)(C)C`, the activity change, negative = viability loss was inactive: -1.13%. To `CN1C(=O)/C(=C/c2cccn2-c2ccc3ccccc3c2)C(=O)NC1=S` belongs inactive: -24%; to `O=C1NC(=O)N(Cc2ccc(F)cc2)C(=O)/C1=C\C=C\c1ccco1`, inactive: -4.63%.

For `CC(C)c1ccc(N2C(=O)NC(=O)/C(=C/C=C/c3ccco3)C2=O)cc1`, the activity change, negative = viability loss is inactive: -15.1%. `O=C1NC(=O)N(Cc2ccccc2Cl)C(=O)/C1=C/c1cccs1`: the activity change, negative = viability loss was inactive: -26.9%. The same measure for `O=C1NC(=O)N(c2ccccc2)C(=O)/C1=C/C=C/c1ccco1`: inactive: -5.93%. The same measure for `O=C1NC(=O)N(Cc2ccccc2)C(=O)/C1=C/C=C/c1ccco1`: inactive: -11%. `Cc1cc(C)cc(N2C(=O)NC(=O)/C(=C\C=C\c3ccco3)C2=O)c1`: the activity change, negative = viability loss was inactive: -2.99%. Regarding `CC(C)c1oc(=O)cc2c1[C@@H](O)[C@H]1OC(=O)[C@@]3(C)C[C@@H](O)[C@@H](O)[C@@]2(C)C13` (stereo not given in full), the activity change, negative = viability loss is inactive: -1.59%.

As to `Cc1cccc(N2C(=O)NC(=O)/C(=C\c3cccn3-c3ccc(Cl)cc3)C2=O)c1`, the activity change, negative = viability loss was inactive: -29%.

Turning to `CCCCCCn1c(=O)c(C(=O)Nc2cnccn2)c(O)c2ccccc21`, the activity change, negative = viability loss was inactive: -6.16%. As to `Cc1ccc(N2C(=O)NC(=O)/C(=C/C=C/c3ccco3)C2=O)cc1`, the activity change, negative = viability loss was inactive: -9.54%. The same measure for `O=C1NC(=S)NC(=O)C1=Cc1cccn1-c1ccc(O)cc1`: inactive: -31.5%; for `CC(C)N1C(=O)/C(=C/C=C/c2ccco2)C(=O)N(Cc2ccco2)C1=O`: inactive: -9.65%.

Regarding `C/C(=C\c1ccc(N(C)C)cc1)[N+](=O)[O-]`, the activity change, negative = viability loss was inactive: -28.8%. Regarding `NC(Cc1nc2ccccc2[nH]1)c1ccc(Cl)cc1` (stereo not given), the activity change, negative = viability loss was inactive: -5.43%. Turning to `O=C(c1ccccc1)C(CN1CCCC1)c1ccccc1` (stereo not given), the activity change, negative = viability loss is inactive: -38%. The same measure for `Cc1ccc(-c2cc(-c3ccc(C)cc3)[n+](C)o2)cc1`: inactive: -46.6%. Regarding `O=C1NC(=O)C(=Cc2ccc(-c3ccc(Cl)cc3)o2)C(=O)N1`, the activity change, negative = viability loss is inactive: -5.27%. Consider `O=C1NC(=S)NC(=O)C1=Cc1cccc2cc3ccccc3cc12`, for which the activity change, negative = viability loss was inactive: -29.5%.

On to `Cc1cc(C)cc(N2C(=O)NC(=O)/C(=C\c3cccn3-c3ccccc3)C2=O)c1`, for which the activity change, negative = viability loss is inactive: -35.4%. The same measure for `C=CCN1C(=O)NC(=O)/C(=C/C=C/c2ccccc2)C1=O`: inactive: -12%; for `CCOC(=O)c1c(-n2c(C)cc(C=C3C(=O)NC(=S)NC3=O)c2C)sc2c1CCCC2`: inactive: -21.6%. Consider `CCCCCn1c(=O)c(C(=O)Nc2cnccn2)c(O)c2ccccc21`, for which the activity change, negative = viability loss is inactive: -13.2%. Turning to `O=C(Nc1ccc(OC(=O)N2CCCCC2)cc1)N1CCOCC1`, the activity change, negative = viability loss is inactive: -2.34%. With `C=CCN1C(=O)/C(=C/c2cc(C)n(-c3cccnc3)c2C)C(=O)NC1=S`, the activity change, negative = viability loss was inactive: -14.5%. The same measure for `O=C1NC(=O)C(=Cc2ccc(-c3cc(Cl)ccc3[N+](=O)[O-])o2)C(=O)N1`: inactive: -10.4%.

As for `CCOc1ccc(-c2cc(C)[n+](CCO)c(-c3ccc(OCC)cc3)c2)cc1`, the activity change, negative = viability loss was inactive: -23.6%. Take `CCc1ccc(N2C(=O)NC(=O)/C(=C\C=C\c3ccco3)C2=O)cc1`: the activity change, negative = viability loss was inactive: -9.95%. Turning to `CC(C)n1c(O)c(C2c3cc(Cl)ccc3Oc3[nH]c(=O)n(C(C)C)c(=O)c32)c(=O)[nH]c1=O` (stereo not given), the activity change, negative = viability loss is inactive: 16.1%. For `CN(C)c1ccc(/C=C2/C(=N\O)C3CCN2CC3)cc1`, the activity change, negative = viability loss was inactive: 1.02%. Take `O=C1NC(=O)N(CCc2ccc(F)cc2)C(=O)/C1=C\C=C\c1ccccc1`: the activity change, negative = viability loss is inactive: 38.4%. Consider `CCOC(=O)Cn1cc([N+](=O)[O-])nc1[N+](=O)[O-]`, for which the activity change, negative = viability loss was inactive: 1.04%.
